PubChem BioAssay AID1671195 – Yale University – 2021
Shown is a random part of about 22,000 deposited reagents. About 1,510 of them (6.9%) were called active. 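Active includes knockdowns raising or lowering LDL uptake; positive z-scores mean more uptake, negative mean less.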 Unmarked entries are inactive. Reagent sequences are not shown.

- Screen: 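Knockdowns that increase or decrease uptake of fluorescent LDL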 (primary screen)
- Cells: human Huh7 hepatoma cells
- Knock-down reagent: siRNA pool against human genes, 18 nM
- Time to read-out: about 2 to 2.5 days of knockdown, then 8 h LDL uptake
- Conditions: DiI-labelled LDL at 30 µg/ml for 8 h, in lipoprotein-deficient serum medium
- Measurement: 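Per-cell DiI-LDL intensity by automated imaging; well means scaled to the plate median and given as a robust z-score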
- Scale: robust z-score: higher = more LDL uptake after knockdown
- Active means: 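Active when two or more replicates show a robust z-score above 2 or below -2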

{"gene knocked down": "LY6H", "robust z-score, replicate 1": "3.14 (active)", "robust z-score, replicate 2": 3.44, "robust z-score, replicate 3": 2.54}
{"gene knocked down": "ZNF804B", "robust z-score, replicate 1": 0.96, "robust z-score, replicate 2": 0.446, "robust z-score, replicate 3": 0.43}
{"gene knocked down": "USO1", "robust z-score, replicate 1": -0.8, "robust z-score, replicate 2": 1.15, "robust z-score, replicate 3": -0.071}
{"gene knocked down": "OR1C1", "robust z-score, replicate 1": "-1.74 (active)", "robust z-score, replicate 2": -2.98, "robust z-score, replicate 3": -1.94}
{"gene knocked down": "SDHA", "robust z-score, replicate 1": 1.01, "robust z-score, replicate 2": 1.06, "robust z-score, replicate 3": 0.681}
{"gene knocked down": "ARFRP1", "robust z-score, replicate 1": -0.635, "robust z-score, replicate 2": 2.32, "robust z-score, replicate 3": 0.472}
{"gene knocked down": "ZNF618", "robust z-score, replicate 1": -0.705, "robust z-score, replicate 2": -1, "robust z-score, replicate 3": -1.01}
{"gene knocked down": "CRYBA1", "robust z-score, replicate 1": -0.232, "robust z-score, replicate 2": 0.359, "robust z-score, replicate 3": -1.5}
{"gene knocked down": "SLC9A9", "robust z-score, replicate 1": 0.481, "robust z-score, replicate 2": -0.266, "robust z-score, replicate 3": 0.776}
{"gene knocked down": "HECTD1", "robust z-score, replicate 1": -1.13, "robust z-score, replicate 2": 0.128, "robust z-score, replicate 3": -0.623}
{"gene knocked down": "CREB1", "robust z-score, replicate 1": -0.339, "robust z-score, replicate 2": 0.0232, "robust z-score, replicate 3": -0.569}
{"gene knocked down": "LOC441930 (retired record)", "robust z-score, replicate 1": 0.757, "robust z-score, replicate 2": -0.0931, "robust z-score, replicate 3": 0.244}
{"gene knocked down": "LOC388466 (retired record)", "robust z-score, replicate 1": 1.02, "robust z-score, replicate 2": 0.849, "robust z-score, replicate 3": 1.28}
{"gene knocked down": "KRT72", "robust z-score, replicate 1": 0.231, "robust z-score, replicate 2": 0.979, "robust z-score, replicate 3": 0.703}
{"gene knocked down": "NPFF", "robust z-score, replicate 1": 0.266, "robust z-score, replicate 2": 2.86, "robust z-score, replicate 3": 1.04}
{"gene knocked down": "HOXD8", "robust z-score, replicate 1": -0.788, "robust z-score, replicate 2": -0.537, "robust z-score, replicate 3": 0.0836}
